# Results reported in the supplement of paper PMC6411743.
# Amino acid sequences for entries named in this document (tags omitted). A change or cut given only in a name is not applied to a line headed by its entry.
# UniProt Q6PHR2: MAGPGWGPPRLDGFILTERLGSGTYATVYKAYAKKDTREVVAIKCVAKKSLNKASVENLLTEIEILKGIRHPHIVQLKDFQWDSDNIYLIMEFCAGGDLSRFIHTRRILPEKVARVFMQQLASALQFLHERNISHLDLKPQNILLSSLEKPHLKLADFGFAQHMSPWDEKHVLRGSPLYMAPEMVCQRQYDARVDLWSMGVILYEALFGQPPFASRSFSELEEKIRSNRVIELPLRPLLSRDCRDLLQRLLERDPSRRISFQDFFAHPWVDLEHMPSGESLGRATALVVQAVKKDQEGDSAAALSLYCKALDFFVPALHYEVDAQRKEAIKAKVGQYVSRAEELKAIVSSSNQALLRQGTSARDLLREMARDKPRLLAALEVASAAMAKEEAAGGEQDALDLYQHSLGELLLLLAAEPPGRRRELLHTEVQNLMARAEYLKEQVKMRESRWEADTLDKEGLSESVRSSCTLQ
# UniProt Q5VSL9: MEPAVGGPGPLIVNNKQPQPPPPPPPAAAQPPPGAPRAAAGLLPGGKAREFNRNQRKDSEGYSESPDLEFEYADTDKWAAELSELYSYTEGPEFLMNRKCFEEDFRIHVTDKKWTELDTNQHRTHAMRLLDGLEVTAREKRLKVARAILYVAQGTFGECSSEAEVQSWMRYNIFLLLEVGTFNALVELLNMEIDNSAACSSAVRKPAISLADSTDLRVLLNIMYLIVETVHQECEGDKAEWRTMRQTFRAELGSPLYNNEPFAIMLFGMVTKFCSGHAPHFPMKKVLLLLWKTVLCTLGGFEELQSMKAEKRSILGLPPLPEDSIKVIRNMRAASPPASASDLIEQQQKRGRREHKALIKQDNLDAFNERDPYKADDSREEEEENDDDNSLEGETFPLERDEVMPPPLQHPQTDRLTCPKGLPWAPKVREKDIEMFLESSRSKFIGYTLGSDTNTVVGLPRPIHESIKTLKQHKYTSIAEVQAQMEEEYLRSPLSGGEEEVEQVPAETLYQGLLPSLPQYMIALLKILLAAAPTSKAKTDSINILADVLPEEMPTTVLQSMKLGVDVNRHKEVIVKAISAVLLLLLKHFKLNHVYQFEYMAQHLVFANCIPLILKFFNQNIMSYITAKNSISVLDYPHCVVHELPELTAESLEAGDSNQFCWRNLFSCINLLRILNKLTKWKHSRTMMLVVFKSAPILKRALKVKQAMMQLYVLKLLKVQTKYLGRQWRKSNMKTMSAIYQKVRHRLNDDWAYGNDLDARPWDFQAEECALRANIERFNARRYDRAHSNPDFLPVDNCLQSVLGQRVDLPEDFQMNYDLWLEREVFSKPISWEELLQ
# UniProt Q86UA1: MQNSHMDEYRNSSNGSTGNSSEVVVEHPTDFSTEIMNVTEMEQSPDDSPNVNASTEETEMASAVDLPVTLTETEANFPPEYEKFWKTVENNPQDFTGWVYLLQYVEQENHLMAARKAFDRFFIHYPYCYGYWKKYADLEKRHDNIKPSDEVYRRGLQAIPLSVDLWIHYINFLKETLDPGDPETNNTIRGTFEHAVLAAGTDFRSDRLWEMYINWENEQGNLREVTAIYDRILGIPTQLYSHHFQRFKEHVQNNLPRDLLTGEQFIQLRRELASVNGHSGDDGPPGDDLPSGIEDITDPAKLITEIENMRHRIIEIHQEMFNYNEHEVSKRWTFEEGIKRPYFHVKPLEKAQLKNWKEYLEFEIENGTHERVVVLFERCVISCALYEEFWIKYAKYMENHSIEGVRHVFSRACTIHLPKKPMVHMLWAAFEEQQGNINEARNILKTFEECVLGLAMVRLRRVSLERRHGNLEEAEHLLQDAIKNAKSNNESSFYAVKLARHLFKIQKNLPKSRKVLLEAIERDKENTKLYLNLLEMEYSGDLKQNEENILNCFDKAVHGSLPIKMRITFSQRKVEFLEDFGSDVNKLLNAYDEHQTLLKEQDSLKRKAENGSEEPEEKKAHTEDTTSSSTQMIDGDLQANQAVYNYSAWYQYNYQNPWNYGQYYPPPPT
# UniProt Q86V88: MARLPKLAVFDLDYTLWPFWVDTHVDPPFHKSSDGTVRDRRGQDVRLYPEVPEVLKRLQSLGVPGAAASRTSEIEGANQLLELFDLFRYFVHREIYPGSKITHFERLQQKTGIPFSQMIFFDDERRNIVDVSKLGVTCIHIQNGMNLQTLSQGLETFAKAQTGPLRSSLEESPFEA
# UniProt Q6PIF6, whole entry: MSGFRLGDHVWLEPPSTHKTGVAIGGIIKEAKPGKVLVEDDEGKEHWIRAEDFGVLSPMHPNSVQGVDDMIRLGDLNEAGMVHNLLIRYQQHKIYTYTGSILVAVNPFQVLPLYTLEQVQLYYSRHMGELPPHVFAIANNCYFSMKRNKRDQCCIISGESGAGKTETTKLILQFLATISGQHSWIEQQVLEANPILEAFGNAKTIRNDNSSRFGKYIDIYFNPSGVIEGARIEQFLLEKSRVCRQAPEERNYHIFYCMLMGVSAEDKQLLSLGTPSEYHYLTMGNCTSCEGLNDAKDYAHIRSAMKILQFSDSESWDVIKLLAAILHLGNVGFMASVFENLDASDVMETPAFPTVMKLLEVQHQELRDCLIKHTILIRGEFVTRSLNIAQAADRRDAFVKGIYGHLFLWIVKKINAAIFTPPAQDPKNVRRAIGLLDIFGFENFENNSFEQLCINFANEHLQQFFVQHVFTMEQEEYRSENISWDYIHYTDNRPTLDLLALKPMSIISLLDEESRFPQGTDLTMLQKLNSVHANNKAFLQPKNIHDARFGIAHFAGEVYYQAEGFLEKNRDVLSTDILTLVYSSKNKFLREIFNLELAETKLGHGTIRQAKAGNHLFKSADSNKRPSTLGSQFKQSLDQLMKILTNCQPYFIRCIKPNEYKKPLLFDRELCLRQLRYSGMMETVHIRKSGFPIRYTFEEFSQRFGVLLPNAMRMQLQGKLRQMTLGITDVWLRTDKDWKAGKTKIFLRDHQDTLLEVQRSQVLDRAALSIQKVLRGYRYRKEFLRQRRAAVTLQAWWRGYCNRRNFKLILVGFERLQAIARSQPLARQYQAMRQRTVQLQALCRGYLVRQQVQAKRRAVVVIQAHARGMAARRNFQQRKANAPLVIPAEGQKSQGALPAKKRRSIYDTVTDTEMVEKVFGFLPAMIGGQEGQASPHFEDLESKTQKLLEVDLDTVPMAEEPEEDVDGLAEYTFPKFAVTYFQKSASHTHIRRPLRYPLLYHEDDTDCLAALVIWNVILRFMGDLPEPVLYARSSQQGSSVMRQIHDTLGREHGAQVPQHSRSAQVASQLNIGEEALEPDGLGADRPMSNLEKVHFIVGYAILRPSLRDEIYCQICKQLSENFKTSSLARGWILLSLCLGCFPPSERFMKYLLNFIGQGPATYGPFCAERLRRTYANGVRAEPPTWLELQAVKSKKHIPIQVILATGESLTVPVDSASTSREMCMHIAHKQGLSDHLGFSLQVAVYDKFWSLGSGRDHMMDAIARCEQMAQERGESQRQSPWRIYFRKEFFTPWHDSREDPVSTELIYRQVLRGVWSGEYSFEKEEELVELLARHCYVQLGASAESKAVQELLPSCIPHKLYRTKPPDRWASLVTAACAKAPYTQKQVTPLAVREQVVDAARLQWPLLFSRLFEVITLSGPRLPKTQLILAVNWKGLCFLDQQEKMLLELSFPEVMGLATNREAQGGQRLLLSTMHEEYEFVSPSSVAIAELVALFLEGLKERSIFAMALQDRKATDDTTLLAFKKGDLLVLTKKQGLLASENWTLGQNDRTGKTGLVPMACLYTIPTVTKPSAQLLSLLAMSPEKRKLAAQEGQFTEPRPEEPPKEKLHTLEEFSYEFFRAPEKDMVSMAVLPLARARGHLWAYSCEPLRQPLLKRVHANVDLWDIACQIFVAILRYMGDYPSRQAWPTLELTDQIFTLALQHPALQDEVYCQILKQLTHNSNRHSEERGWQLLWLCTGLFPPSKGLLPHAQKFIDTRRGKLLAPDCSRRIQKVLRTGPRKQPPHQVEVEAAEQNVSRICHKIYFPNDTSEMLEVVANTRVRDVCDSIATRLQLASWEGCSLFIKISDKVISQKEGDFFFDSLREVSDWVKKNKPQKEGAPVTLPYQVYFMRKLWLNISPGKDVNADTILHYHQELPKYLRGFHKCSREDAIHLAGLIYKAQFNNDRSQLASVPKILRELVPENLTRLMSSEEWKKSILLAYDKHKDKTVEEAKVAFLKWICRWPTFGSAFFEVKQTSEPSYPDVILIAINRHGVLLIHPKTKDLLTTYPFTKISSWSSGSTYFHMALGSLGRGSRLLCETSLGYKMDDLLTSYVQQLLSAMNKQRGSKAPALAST
# ± gives the standard deviation of the averaged measurements. Some of the results follow.
# Compound: Nc1nc2c(ncn2[C@@H]2O[C@H](COP(=O)(O)OP(=O)(O)OP(=O)(O)O)[C@@H](O)[C@H]2O)c(=O)[nH]1 [guanosine triphosphate]
# Test: NP40-soluble protein abundance relative to vehicle (solubility fold change) (ratio); higher = more soluble protein in presence of GTP
# Description: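 Solubility proteome profiling in Jurkat crude lysate. Lysate was treated with Mg-GTP (0.1-10 mM) for 10 min at room temperature and 3 min at 37 °C, then solubilised with 0.8% NP40 and benzonase, followed by ultracentrifugation. Proteins were quantified by TMT10 LC-MS/MS; the value is the NP40-soluble abundance relative to the NP40-processed vehicle, from 3 independent experiments.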
Target,NP40-soluble protein abundance (concentration: 0.1mM),NP40-soluble protein abundance (concentration: 0.5mM),NP40-soluble protein abundance (concentration: 1mM),NP40-soluble protein abundance (concentration: 2mM),NP40-soluble protein abundance (concentration: 4mM),NP40-soluble protein abundance (concentration: 6mM),NP40-soluble protein abundance (concentration: 8mM),NP40-soluble protein abundance (concentration: 10mM)
UniProt Q6PHR2 and related entries,1.12 ± 0.09,1.13 ± 0.15,1.1 ± 0.078,1.09 ± 0.038,1.08 ± 0.078,0.974 ± 0.093,1.03 ± 0.038,0.952 ± 0.067
UniProt Q5VSL9,1 ± 0.03,1 ± 0.041,1.05 ± 0.023,1.08 ± 0.038,1.09 ± 0.044,1.06 ± 0.021,1.14 ± 0.047,1.13 ± 0.057
PRPF39 (UniProt Q86UA1),1.08 ± 0.083,1.05 ± 0.063,1.07 ± 0.08,0.999 ± 0.057,1 ± 0.079,0.991 ± 0.052,1.03 ± 0.038,0.955 ± 0.043
UniProt Q86V88 and related entries,0.975 ± 0.052,0.901 ± 0.079,0.953 ± 0.11,0.872 ± 0.064,0.869 ± 0.048,0.839 ± 0.089,0.858 ± 0.058,0.88 ± 0.078
UniProt Q6PIF6,1.1 ± 0.031,1.04 ± 0.1,1.06 ± 0.11,1.09 ± 0.14,1.16 ± 0.19,1.15 ± 0.097,1.09 ± 0.17,1.03 ± 0.14
